Drawing on publication PMC2790443, this text covers binding for 10 molecules.

Chains of the proteins cited; added tags and fusions are not shown. Residues count along the entry.
UniProt Q03265, residues 44-553: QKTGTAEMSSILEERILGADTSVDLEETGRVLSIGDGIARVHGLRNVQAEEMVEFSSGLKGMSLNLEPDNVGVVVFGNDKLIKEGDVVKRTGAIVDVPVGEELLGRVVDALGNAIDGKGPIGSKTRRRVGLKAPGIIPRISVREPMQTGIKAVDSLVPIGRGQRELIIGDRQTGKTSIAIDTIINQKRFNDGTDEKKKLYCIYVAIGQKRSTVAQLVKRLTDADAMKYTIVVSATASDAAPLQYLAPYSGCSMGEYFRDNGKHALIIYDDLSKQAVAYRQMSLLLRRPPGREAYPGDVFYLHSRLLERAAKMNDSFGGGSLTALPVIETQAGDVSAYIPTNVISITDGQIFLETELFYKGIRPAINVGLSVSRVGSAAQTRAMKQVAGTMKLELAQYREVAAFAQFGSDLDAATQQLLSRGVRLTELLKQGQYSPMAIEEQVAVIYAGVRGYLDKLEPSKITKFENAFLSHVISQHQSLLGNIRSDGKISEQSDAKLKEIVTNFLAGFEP
UniProt Q9UBY8: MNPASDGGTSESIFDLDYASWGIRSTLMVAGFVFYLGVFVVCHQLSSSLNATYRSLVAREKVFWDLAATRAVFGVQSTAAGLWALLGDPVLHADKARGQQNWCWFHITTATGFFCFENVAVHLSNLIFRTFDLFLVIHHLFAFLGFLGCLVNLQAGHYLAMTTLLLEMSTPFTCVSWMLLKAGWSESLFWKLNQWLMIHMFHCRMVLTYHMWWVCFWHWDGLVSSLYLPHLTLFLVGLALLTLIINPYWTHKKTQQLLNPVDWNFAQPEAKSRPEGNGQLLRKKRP
UniProt P56480, residues 47-529: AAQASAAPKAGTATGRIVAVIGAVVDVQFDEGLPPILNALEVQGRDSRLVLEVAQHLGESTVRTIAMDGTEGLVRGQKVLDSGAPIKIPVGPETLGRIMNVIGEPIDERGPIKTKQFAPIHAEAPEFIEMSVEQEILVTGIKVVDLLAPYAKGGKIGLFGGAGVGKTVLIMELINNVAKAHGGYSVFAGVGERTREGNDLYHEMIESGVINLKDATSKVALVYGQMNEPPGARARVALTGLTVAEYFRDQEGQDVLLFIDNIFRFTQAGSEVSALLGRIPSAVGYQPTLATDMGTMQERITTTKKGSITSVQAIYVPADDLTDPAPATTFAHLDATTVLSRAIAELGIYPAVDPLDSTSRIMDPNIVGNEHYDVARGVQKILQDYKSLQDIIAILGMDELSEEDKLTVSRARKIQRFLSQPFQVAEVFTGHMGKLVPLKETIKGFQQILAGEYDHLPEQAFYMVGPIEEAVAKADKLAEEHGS

No constants are given. Whether binding was seen depends on the method and setting. In cells and extracts the contact can be indirect. Some binding calls cover weakened binding; strength is not graded here. Where a sequence is shown, tags or fusion partners need not be part of it.

For test [1], the target named is T1, GST-hPPT1_(28-306) (human) (UniProt P50897).
T1 sequence: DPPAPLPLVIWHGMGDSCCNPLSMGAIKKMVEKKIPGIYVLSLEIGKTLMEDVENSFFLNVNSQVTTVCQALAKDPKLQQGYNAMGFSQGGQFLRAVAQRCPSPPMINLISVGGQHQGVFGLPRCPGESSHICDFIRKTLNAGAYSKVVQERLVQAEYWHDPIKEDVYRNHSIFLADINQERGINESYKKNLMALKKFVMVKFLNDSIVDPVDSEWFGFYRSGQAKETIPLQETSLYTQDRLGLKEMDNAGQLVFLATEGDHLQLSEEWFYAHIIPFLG
Briefly: pull-down; GST fusion proteins (GST-mCLN5, GST-hPPT1) incubated over night at 4°C with 1 ml (2.5 mg/ml) of enriched lysosomal/mitochondrial fraction of liver of wt, Cln1-/- or Cln5-/- mice; EB buffer 100 mM NaCl, 50 mM HEPES pH 7.4, 5 mM MgCl2, 0.5% Triton X-100; blot for α- and β-subunits; only the target purified.

The target in test [2] is T2, GST-mCLN5 (mouse CLN5 lacking the signal sequence, aa 26-341, with N-terminal GST) (mouse) (UniProt Q3UMW8).
T2 sequence: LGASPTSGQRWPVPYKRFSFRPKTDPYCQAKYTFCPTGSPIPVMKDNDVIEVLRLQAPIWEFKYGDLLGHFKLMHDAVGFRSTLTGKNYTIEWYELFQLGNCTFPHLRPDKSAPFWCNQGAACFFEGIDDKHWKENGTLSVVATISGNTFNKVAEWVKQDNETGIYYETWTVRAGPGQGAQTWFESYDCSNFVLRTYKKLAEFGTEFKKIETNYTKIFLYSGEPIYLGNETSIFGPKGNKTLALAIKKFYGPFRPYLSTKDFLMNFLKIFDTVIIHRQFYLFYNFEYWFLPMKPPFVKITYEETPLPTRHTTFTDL
The test is described as above.

Test [3] concerns the target T2, GST-mCLN5 (mouse CLN5 lacking the signal sequence, aa 26-341, with N-terminal GST) (mouse). Description: pull-down; GST-mCLN5 on glutathione-Sepharose 4B beads incubated with COS-1 lysates (~2 mg/ml; transfected or endogenous proteins) overnight at 4°C; lysis buffer 25 mM HEPES pH 7.4, 150 mM NaCl, 1 mM EDTA, 0.5% Triton X-100, 0.5 mM MgCl2; five washes; Western blot; only the target purified. A general note: A western blot detects proteins with antibodies after separation by electrophoresis.

The target is the same in test [4]. Description: pull-down; GST-mCLN5 used to pull down endogenous NCL proteins from HeLa cell lysates; Western blot; only the target purified.
Test [5] shares this target. Description: pull-down; GST-mCLN5 used to pull down endogenous NCL proteins from mouse brain extract; Western blot; only the target purified.

For the molecule “α-subunit of the mitochondrial ATP synthase (F1-complex), endogenous in mouse liver (from UniProt Q03265 44-553)”, the binding entry in test [1] and in test [2] was “binds” in each case. In the case of “CLN8-HA, overexpressed in COS-1 cells (from UniProt Q9UBY8 1-286)”, the binding result in test [3] is given as “binds”. Turning to “β-subunit of the mitochondrial ATP synthase (F1-complex), endogenous in mouse liver (from UniProt P56480 47-529)”, the binding entry in test [1] and in test [2] was “binds” each time.

B1: CLN6, endogenous in HeLa cells (protein, UniProt Q9NWW5 1-311)
chain: MEATRRRQHLGATGGPGAQLGASFLQARHGSVSADEAARTAPFHLDLWFYFTLQNWVLDFGRPIAMLVFPLEWFPLNKPSVGDYFHMAYNVITPFLLLKLIERSPRTLPRSITYVSIIIFIMGASIHLVGDSVNHRLLFSGYQHHLSVRENPIIKNLKPETLIDSFELLYYYDEYLGHCMWYIPFFLILFMYFSGCFTASKAESLIPGPALLLVAPSGLYYWYLVTEGQIFILFIFTFFAMLALVLHQKRKRLFLDSNGLFLFSSFALTLLLVALWVAWLWNDPVLRKKYPGVIYVPEPWAFYTLHVSSRH
Regarding B1, the binding entry in test [4] is “binds”.

B2: CLN6-c-myc, overexpressed in COS-1 cells (protein, UniProt Q9NWW5 1-311)
chain: B1 chain
On to B2, for which, in test [3], the binding entry is given as “binds”.

B3: CLN6, endogenous in mouse brain (protein, UniProt Q3U466 1-308)
chain: MEAATRRRQLLGAAGGPGVAFVQARHGSVKAEDKDRTAPFHLDLWFYFTLQNWVLDFGRPIAMLVFPIQWFPLNKPSVGDYFHMTYNIITPFLLLKLIERSPRTLPRSIVYVSIITFIMGASIHLVGDSVNHRLLFSGYQHHLSVRENPIIKNLKPETLIDSFELLYYYDEYLGHCMWYIPFFLILFMYFSGCFTTCKAESHMPGPALLLVVPSGLYYWYLVTEGQIFILFIFTFFAMLALVLHQKRRRLFLDSNGLFLLYSFALTLSLVALWVAWLWNDPVLRKKYPGVIYVPEPWAFYTLHVSSQQ
In the case of B3, the binding entry in test [5] is “binds”.

B4: PPT1/CLN1, endogenous in mouse brain (enzyme, UniProt O88531 28-306)
chain: DPPSPPPLVIWHGMGDSCCNPMSMGVIKKMVEKEIPGIYVLSLEIGKNMMEDVENSFFLNVNVQVNMVCQILEKDPKLQQGYNAIGFSQGGQFLRAVAQRCPTPPMMTLISVGGQHQGVFGLPRCPGESSHICDFIRKSLNAGAYSKLVQERLVQAQYWHDPIKESVYRNYSIFLADINQERCVNESYKKNLMALKKFVMVKFFNDSIVDPVDSEWFGFYRSGQAKETIPLQESTLYTEDRLGLKKMDKAGKLVFLAKEGDHLQISKEWFTAHIIPFLK
For B4, the binding entry in test [5] is given as “binds”.

B5: CLN3, overexpressed in COS-1 cells (protein, UniProt Q13286 1-438)
chain: MGGCAGSRRRFSDSEGEETVPEPRLPLLDHQGAHWKNAVGFWLLGLCNNFSYVVMLSAAHDILSHKRTSGNQSHVDPGPTPIPHNSSSRFDCNSVSTAAVLLADILPTLVIKLLAPLGLHLLPYSPRVLVSGICAAGSFVLVAFSHSVGTSLCGVVFASISSGLGEVTFLSLTAFYPRAVISWWSSGTGGAGLLGALSYLGLTQAGLSPQQTLLSMLGIPALLLASYFLLLTSPEAQDPGGEEEAESAARQPLIRTEAPESKPGSSSSLSLRERWTVFKGLLWYIVPLVVVYFAEYFINQGLFELLFFWNTSLSHAQQYRWYQMLYQAGVFASRSSLRCCRIRFTWALALLQCLNLVFLLADVWFGFLPSIYLVFLIILYEGLLGGAAYVNTFHNIALETSDEHREFAMAATCISDTLGISLSGLLALPLHDFLCQLS
B5: in test [3], the binding entry was “binds”.

B6: CLN3, endogenous in HeLa cells (protein, UniProt Q13286 1-438)
chain: B5 chain
With B6, the binding result in test [4] is recorded as “binds”.

B7: CLN3, endogenous in mouse brain (protein, UniProt Q61124 1-438)
chain: MGSSAGSWRRLEDSEREETDSEPQAPRLDSRSVLWKNAVGFWILGLCNNFSYVVMLSAAHDILKQEQASGNQSHVEPGPTPTPHNSSSRFDCNSISTAAVLLADILPTLVIKLLAPLGLHLLPYSPRVLVSGVCSAGSFVLVAFSQSVGLSLCGVVLASISSGLGEVTFLSLTAFYPSAVISWWSSGTGGAGLLGSLSYLGLTQAGLSPQHTLLSMLGIPVLLLASYFLLLTSPEPLDPGGENEAETAARQPLIGTETPESKPGASWDLSLQERWTVFKGLLWYIIPLVLVYFAEYFINQGLFELLFFRNTSLSHAQQYRWYQMLYQAGVFASRSSLQCCRIRFTWVLALLQCLNLALLLADVCLNFLPSIYLIFIIILYEGLLGGAAYVNTFHNIALETSDKHREFAMEAACISDTLGISLSGVLALPLHDFLCHLP
With B7, the binding result in test [5] is given as “binds”.
